Values of other authors as cited in patent US20250270619A1, “COMPOSITIONS, KITS AND METHODS FOR DIRECT AMPLIFICATION FROM CRUDE BIOLOGICAL SAMPLES” (LIFE TECHNOLOGIES CORPORATION, priority 2021, published 2025).
For at least one compound, name, drawing or mass did not settle the structure.

Settings: cited from earlier work

C[C@H](CCC(=O)NCCC[N+](C)(C)CC(O)CS(=O)(=O)[O-])[C@H]1CC[C@H]2[C@@H]3[C@H](O)C[C@@H]4C[C@H](O)CC[C@]4(C)[C@H]3C[C@H](O)[C@]12C (stereo partly shown) [CHAPSO, 3-[(3-cholamidopropyl)dimethylammonio]-2-hydroxy-1-propanesulfonate]
Critical Micelle Concentration (CMC): 0.500% w/v %
